Article PMC10763354

Target: T1, leucine-rich repeat containing 19 (LRRC19) protein (UniProt Q9H756)
T1 sequence (chain, NT647 fluorescence dye (in the MST experiments only)): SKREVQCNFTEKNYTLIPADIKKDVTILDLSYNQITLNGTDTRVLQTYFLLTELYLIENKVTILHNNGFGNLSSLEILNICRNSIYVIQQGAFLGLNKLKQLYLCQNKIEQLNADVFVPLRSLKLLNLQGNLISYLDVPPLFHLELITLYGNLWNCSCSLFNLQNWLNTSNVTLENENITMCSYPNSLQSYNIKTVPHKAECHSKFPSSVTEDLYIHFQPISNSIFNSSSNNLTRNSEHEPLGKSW
Test: MST; Monolith NT.115; LRRC19 labelled with NT647 dye; DVF in MST buffer (50 mM Tris-HCl pH 7.4, 150 mM NaCl, 10 mM MgCl2); both purified

## Desulfovibrio vulgaris flagellin
  binding: binds

Results are given in words; binding and its absence hold for the method and conditions named. A result given as binding can be weak or reduced; the word gives no strength.
